The test system of this test is BDF1 mice, P388 leukemia ip, median survival T/C. Briefly: NCI In Vivo Anticancer Drug Screen. Data for tumor model P388 Leukemia (intraperitoneal) in B6D2F1 (BDF1) mice. The following applies: T/C endpoint: median survival time, higher T/C = longer survival. The essentials:
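Mice carrying the transplantable tumour receive compound or vehicle. Survival is followed in each arm, and the treated measure is divided by the vehicle measure.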

Where [1] appears, read: dose: 100.0 mg/kg/injection, schedule: Q04DX003 (ip), vehicle: saline with Tween-80.
Where [2] appears, read: dose: 200.0 mg/kg/injection, schedule: Q04DX003 (ip), vehicle: saline with Tween-80.
Setting [3] is: dose: 50.0 mg/kg/injection, schedule: Q01DX005 (ip), vehicle: saline with Tween-80.
The mark [4] stands for this setting: dose: 100.0 mg/kg/injection, schedule: Q01DX005 (ip), vehicle: saline with Tween-80.
Setting [5] is: dose: 200.0 mg/kg/injection, schedule: Q01DX005 (ip), vehicle: saline with Tween-80.
Setting [6] is: dose: 50.0 mg/kg/injection, schedule: Q04DX003 (ip), vehicle: saline with Tween-80.
The mark [7] stands for this setting: dose: 100.0 mg/kg/injection, schedule: Q01DX009 (ip), vehicle: Klucel (hydroxypropylcellulose) (HPC).
Where [8] appears, read: dose: 100.0 mg/kg/injection, schedule: Q04DX003 (ip), vehicle: Klucel (hydroxypropylcellulose) (HPC).
The mark [9] stands for this setting: dose: 400.0 mg/kg/injection, schedule: Q04DX003 (ip), vehicle: Klucel (hydroxypropylcellulose) (HPC).

The results in this text go back to PubChem BioAssay AID328 (DTP/NCI, 2004).

The list is a part of this screen's results and no random one: its compounds were picked by chemical class. Other doses and runs of a compound may be missing. T/C: endpoint of the treated group in % of that of the vehicle group. Some doses have a count of surviving animals in place of a T/C: the source files T/C as zero there, which appears to mark a toxic dose or a test without result, not a measured value. Some survivor counts are full or nearly so, which does not show that the dose was tolerated: the source hardly ever lists a survival T/C far under the control, and the zero likely stands for such cases as well. Counts of survivors are from the toxicity check (mostly the fifth day) where no day follows; animals may have died later. Schedule codes are those of the source, read here as Q, the interval in days (D) or hours (H), X, the number of doses. Some metal complexes and salts are drawn in pieces, as in the source, so charges may not balance. For survival time, the PubChem record calls one and a half times the control and up active, and a quarter to a half above the control has no call in these data; cut-offs in other NCI protocols can differ. Some doses were run more than once; the values are given in rising order. Some T/C values are marked as having no survivor count here; that says nothing about deaths at the dose. Additions like (4×) stand for listed records that agree. Some T/C values carry the count of animals alive at the toxicity check (mostly the fifth day); where neither a count nor a note follows, no animal had died by that day.

As to `CCCCO[P+](=O)OCCCC`, the T/C reads like this: (dose: 50.0 mg/kg/injection, schedule: Q01DX009 (ip), vehicle: saline) 118 % of control; (dose: 100.0 mg/kg/injection, schedule: Q01DX009 (ip), vehicle: saline) 100 % of control; under setting [1], 100 % of control; (dose: 200.0 mg/kg/injection, schedule: Q01DX009 (ip), vehicle: saline) 104 % of control; under setting [2], 100 % of control; (dose: 400.0 mg/kg/injection, schedule: Q04DX003 (ip), vehicle: saline with Tween-80) 100 % of control.

Regarding `CCOP(=S)(CC)Oc1cnn(C)c(=O)c1SCC` (configuration not stated), the survivor count is 0 of 6 under setting [3], 0 of 6 under setting [4] and 0 of 6 under setting [5].

For `O=[N+]([O-])C1C(O)C(O)C([N+](=O)[O-])C(O)C1O` (configuration not stated), the T/C runs as follows: (dose: 12.5 mg/kg/injection, schedule: Q01DX005 (ip), vehicle: saline with Tween-80) 132 % of control; (dose: 25.0 mg/kg/injection, schedule: Q01DX005 (ip), vehicle: saline with Tween-80) 100 % of control. In addition, under setting [3], the survivor count is listed as 5 of 5.

With `COC(=O)c1ccccc1C[N+](C)(CCCl)CCCl`, the T/C (dose: 0.2 mg/kg/injection, schedule: Q01DX009 (ip), vehicle: saline) was 86 % of control; the T/C (dose: 0.31 mg/kg/injection, schedule: Q01DX009 (ip), vehicle: saline) is 100 % of control; the T/C (dose: 0.47 mg/kg/injection, schedule: Q01DX009 (ip), vehicle: saline) was 125 % of control; the T/C (dose: 0.71 mg/kg/injection, schedule: Q01DX009 (ip), vehicle: saline) is 162 % of control; the T/C (dose: 1.08 mg/kg/injection, schedule: Q01DX009 (ip), vehicle: saline) was 155 % of control; the T/C (dose: 2.17 mg/kg/injection, schedule: Q01DX009 (ip), vehicle: saline) is 130 % of control. In addition, the T/C (dose: 2.87 mg/kg/injection, schedule: Q01DX009 (ip), vehicle: saline) is 110 and 145 % of control; the T/C (dose: 4.35 mg/kg/injection, schedule: Q01DX009 (ip), vehicle: saline) is 154 and 155 % of control; the T/C (dose: 6.52 mg/kg/injection, schedule: Q01DX009 (ip), vehicle: saline) is 145 and 172 % of control; the T/C (dose: 7.1 mg/kg/injection, schedule: Q01DX001 (ip), vehicle: saline) was 100 % of control; the T/C (dose: 9.2 mg/kg/injection, schedule: Q01DX009 (ip), vehicle: saline) was 200 % of control; the T/C (dose: 10.0 mg/kg/injection, schedule: Q01DX001 (ip), vehicle: saline) is 109 % of control. The T/C (dose: 10.5 mg/kg/injection, schedule: Q04DX003 (ip), vehicle: saline) was 100 % of control; the T/C (dose: 16.25 mg/kg/injection, schedule: Q01DX001 (ip), vehicle: saline) was 129 % of control; the T/C (dose: 21.0 mg/kg/injection, schedule: Q04DX003 (ip), vehicle: saline) was 100 % of control; the T/C (dose: 21.7 mg/kg/injection, schedule: Q01DX001 (ip), vehicle: saline) was 109 % of control.

Regarding `Cc1cc(Cl)ccc1Nc1c([N+](=O)[O-])cc([N+](=O)[O-])cc1[N+](=O)[O-]`, the T/C reads like this: (dose: 50.0 mg/kg/injection, schedule: Q01DX001 (ip), vehicle: Klucel (hydroxypropylcellulose) (HPC)) 105 % of control [survivor count not shown]; (dose: 100.0 mg/kg/injection, schedule: Q01DX001 (ip), vehicle: Klucel (hydroxypropylcellulose) (HPC)) 105 % of control [survivor count not shown]; (dose: 200.0 mg/kg/injection, schedule: Q01DX001 (ip), vehicle: Klucel (hydroxypropylcellulose) (HPC)) 100 % of control [survivor count not shown].

As for `CC1(C)CC[P+](CCC[P+]2(c3ccccc3)CCC(C)(C)c3ccccc32)(c2ccccc2)c2ccccc21.F[P-](F)(F)(F)(F)F` (configuration not stated), the survivor count is, setting by setting: under setting [3], 0 of 6; under setting [4], 0 of 6; under setting [5], 0 of 6.

Regarding `[N-]=[N+]=NC(=O)c1cc(Cl)cc(C(=O)N=[N+]=[N-])n1`, the T/C runs as follows: (dose: 12.5 mg/kg/injection, schedule: Q01DX009 (ip), vehicle: saline with Tween-80) 109 % of control; (dose: 25.0 mg/kg/injection, schedule: Q01DX009 (ip), vehicle: saline with Tween-80) 113 % of control [4 of 6 alive]; (dose: 25.0 mg/kg/injection, schedule: Q04DX003 (ip), vehicle: saline with Tween-80) 109 % of control [5 of 6 alive]; under setting [6], 104 % of control. Besides, the survivor count reads like this: (dose: 50.0 mg/kg/injection, schedule: Q01DX009 (ip), vehicle: saline with Tween-80) 0 of 6; under setting [1], 4 of 6.

For the compound `O=C(Nc1ccccc1)N(CCCl)CCCl`, the T/C was 103 % of control [5 of 6 alive] under setting [6], 88 % of control under setting [1] and 115 % of control under setting [2].

Consider `CN(C)Nc1c([N+](=O)[O-])cc([N+](=O)[O-])cc1[N+](=O)[O-]`, for which the T/C reads like this: under setting [7], 86 % of control [survivor count not shown]; under setting [8], 95 % of control [survivor count not shown]; (dose: 200.0 mg/kg/injection, schedule: Q01DX009 (ip), vehicle: Klucel (hydroxypropylcellulose) (HPC)) 86 % of control [survivor count not shown]; under setting [9], 91 % of control [survivor count not shown].

For `Cn1/c(=N/Nc2c([N+](=O)[O-])cc([N+](=O)[O-])cc2[N+](=O)[O-])sc2ccccc21`, the T/C runs as follows: (dose: 100.0 mg/kg/injection, schedule: Q04DX003 (ip), vehicle: saline) 90 % of control [survivor count not shown]; (dose: 200.0 mg/kg/injection, schedule: Q04DX003 (ip), vehicle: saline) 90 % of control [survivor count not shown]; (dose: 400.0 mg/kg/injection, schedule: Q04DX003 (ip), vehicle: saline) 95 % of control [survivor count not shown].

With `O=Cc1ccc(N(CCI)CCI)cc1`, the T/C was 136 % of control (dose: 75.0 mg/kg/injection, schedule: Q01DX009 (ip), vehicle: saline with Tween-80); 150 % of control (dose: 132.0 mg/kg/injection, schedule: Q04DX003 (ip), vehicle: saline with Tween-80); 86 % of control (dose: 150.0 mg/kg/injection, schedule: Q01DX009 (ip), vehicle: saline with Tween-80); 154 % of control under setting [2]; 163 % of control (dose: 300.0 mg/kg/injection, schedule: Q04DX003 (ip), vehicle: saline with Tween-80). Besides, the survivor count (dose: 300.0 mg/kg/injection, schedule: Q01DX009 (ip), vehicle: saline with Tween-80) was 5 of 6.

On to `O=[N+]([O-])c1cc([N+](=O)[O-])c(O)c([N+](=O)[O-])c1.OCc1cnc[nH]1`, for which the T/C (dose: 25.0 mg/kg/injection, schedule: Q01DX009 (ip), vehicle: Klucel (hydroxypropylcellulose) (HPC)) was 100 % of control [survivor count not shown]; the T/C (dose: 50.0 mg/kg/injection, schedule: Q01DX009 (ip), vehicle: Klucel (hydroxypropylcellulose) (HPC)) is 100 % of control [survivor count not shown]; the T/C under setting [7] is 90 % of control [survivor count not shown] (2×); the T/C under setting [8] was 100 % of control [survivor count not shown]; the T/C (dose: 200.0 mg/kg/injection, schedule: Q04DX003 (ip), vehicle: Klucel (hydroxypropylcellulose) (HPC)) is 113 % of control [survivor count not shown]; the T/C under setting [9] was 113 % of control [survivor count not shown].
